This note sets out measurements from article doi:10.1101/569459 (bioRxiv, 2019).

Sequences of proteins named here, by UniProt entry; tags and fusion partners are left off.
UniProt O43663: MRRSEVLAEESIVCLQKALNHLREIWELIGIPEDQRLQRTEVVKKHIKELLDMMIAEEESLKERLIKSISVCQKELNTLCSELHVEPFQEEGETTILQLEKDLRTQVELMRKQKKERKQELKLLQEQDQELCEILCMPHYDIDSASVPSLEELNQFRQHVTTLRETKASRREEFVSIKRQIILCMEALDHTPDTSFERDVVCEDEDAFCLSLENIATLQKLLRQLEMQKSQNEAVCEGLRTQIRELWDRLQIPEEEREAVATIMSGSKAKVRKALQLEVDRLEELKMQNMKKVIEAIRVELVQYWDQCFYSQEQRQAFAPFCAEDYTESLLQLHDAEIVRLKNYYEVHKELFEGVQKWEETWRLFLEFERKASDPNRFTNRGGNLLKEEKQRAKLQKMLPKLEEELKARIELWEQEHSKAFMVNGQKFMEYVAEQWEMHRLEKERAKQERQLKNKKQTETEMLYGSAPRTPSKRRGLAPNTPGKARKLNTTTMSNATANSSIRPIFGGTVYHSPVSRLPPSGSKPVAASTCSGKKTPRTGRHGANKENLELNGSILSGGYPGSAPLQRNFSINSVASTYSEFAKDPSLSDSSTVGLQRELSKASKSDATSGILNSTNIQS
UniProt O14578: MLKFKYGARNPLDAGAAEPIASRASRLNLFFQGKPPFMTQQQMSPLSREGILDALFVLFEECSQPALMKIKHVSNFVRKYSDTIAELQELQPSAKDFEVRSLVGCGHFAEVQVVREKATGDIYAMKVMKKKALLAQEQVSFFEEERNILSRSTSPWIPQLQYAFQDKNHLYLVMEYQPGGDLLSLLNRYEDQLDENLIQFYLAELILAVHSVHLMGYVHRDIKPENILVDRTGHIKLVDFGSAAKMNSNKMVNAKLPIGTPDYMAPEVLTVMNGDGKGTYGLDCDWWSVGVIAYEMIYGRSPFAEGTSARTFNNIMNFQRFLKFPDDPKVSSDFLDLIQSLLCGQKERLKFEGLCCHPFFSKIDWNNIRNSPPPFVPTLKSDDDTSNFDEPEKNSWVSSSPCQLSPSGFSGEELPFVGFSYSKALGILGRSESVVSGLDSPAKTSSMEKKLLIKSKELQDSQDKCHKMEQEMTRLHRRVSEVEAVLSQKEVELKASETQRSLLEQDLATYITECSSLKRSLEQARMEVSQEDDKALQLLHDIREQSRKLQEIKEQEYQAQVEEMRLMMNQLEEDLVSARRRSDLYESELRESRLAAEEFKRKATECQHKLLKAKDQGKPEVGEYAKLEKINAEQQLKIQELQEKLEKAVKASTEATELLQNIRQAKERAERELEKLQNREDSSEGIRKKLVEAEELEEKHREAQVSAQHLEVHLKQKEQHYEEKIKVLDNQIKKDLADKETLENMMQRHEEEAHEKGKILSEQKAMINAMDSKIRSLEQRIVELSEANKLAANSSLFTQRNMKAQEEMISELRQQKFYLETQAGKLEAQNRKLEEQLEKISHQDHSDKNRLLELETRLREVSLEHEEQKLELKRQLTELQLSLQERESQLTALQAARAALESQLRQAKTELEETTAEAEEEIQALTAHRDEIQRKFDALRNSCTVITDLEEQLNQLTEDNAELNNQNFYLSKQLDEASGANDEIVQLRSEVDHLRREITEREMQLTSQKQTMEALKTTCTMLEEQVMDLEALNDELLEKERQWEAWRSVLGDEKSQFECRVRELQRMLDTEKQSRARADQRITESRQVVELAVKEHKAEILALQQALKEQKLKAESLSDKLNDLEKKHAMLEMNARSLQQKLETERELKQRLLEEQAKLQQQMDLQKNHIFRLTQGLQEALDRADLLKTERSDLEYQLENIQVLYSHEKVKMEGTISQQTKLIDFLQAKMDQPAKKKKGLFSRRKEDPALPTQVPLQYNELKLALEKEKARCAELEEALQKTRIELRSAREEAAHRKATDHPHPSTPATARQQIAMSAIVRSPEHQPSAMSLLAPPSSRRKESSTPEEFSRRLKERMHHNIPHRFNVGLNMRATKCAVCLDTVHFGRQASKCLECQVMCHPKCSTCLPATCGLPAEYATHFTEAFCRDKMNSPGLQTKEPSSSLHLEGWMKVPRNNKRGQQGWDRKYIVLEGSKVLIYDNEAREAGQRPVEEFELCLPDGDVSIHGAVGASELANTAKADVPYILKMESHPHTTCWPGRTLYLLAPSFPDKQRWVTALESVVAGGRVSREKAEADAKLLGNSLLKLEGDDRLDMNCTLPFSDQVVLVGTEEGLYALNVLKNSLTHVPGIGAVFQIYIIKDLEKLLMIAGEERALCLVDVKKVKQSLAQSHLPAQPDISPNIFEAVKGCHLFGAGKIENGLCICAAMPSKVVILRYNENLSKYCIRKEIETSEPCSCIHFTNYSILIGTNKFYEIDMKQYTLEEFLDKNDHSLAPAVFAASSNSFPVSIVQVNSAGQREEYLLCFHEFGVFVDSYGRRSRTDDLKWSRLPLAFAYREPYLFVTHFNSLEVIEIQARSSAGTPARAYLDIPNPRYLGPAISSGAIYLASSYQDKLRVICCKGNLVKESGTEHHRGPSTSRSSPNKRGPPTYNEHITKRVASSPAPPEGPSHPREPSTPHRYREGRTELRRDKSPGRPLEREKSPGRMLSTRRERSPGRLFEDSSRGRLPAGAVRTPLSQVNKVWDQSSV
UniProt P53350: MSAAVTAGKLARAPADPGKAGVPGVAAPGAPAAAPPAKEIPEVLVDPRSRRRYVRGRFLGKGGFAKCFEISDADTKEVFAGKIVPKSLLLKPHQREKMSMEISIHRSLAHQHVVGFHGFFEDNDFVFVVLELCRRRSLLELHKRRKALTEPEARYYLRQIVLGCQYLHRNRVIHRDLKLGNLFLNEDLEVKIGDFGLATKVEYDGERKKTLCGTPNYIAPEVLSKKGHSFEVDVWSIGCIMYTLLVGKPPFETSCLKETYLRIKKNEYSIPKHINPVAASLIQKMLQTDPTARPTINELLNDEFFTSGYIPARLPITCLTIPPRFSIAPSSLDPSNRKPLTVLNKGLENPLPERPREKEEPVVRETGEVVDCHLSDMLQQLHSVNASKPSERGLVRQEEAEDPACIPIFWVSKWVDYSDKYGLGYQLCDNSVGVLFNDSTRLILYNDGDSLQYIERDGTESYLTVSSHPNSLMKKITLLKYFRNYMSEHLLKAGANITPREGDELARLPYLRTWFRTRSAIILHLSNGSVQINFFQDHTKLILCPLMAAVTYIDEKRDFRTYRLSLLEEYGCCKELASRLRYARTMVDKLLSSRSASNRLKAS
UniProt Q15058: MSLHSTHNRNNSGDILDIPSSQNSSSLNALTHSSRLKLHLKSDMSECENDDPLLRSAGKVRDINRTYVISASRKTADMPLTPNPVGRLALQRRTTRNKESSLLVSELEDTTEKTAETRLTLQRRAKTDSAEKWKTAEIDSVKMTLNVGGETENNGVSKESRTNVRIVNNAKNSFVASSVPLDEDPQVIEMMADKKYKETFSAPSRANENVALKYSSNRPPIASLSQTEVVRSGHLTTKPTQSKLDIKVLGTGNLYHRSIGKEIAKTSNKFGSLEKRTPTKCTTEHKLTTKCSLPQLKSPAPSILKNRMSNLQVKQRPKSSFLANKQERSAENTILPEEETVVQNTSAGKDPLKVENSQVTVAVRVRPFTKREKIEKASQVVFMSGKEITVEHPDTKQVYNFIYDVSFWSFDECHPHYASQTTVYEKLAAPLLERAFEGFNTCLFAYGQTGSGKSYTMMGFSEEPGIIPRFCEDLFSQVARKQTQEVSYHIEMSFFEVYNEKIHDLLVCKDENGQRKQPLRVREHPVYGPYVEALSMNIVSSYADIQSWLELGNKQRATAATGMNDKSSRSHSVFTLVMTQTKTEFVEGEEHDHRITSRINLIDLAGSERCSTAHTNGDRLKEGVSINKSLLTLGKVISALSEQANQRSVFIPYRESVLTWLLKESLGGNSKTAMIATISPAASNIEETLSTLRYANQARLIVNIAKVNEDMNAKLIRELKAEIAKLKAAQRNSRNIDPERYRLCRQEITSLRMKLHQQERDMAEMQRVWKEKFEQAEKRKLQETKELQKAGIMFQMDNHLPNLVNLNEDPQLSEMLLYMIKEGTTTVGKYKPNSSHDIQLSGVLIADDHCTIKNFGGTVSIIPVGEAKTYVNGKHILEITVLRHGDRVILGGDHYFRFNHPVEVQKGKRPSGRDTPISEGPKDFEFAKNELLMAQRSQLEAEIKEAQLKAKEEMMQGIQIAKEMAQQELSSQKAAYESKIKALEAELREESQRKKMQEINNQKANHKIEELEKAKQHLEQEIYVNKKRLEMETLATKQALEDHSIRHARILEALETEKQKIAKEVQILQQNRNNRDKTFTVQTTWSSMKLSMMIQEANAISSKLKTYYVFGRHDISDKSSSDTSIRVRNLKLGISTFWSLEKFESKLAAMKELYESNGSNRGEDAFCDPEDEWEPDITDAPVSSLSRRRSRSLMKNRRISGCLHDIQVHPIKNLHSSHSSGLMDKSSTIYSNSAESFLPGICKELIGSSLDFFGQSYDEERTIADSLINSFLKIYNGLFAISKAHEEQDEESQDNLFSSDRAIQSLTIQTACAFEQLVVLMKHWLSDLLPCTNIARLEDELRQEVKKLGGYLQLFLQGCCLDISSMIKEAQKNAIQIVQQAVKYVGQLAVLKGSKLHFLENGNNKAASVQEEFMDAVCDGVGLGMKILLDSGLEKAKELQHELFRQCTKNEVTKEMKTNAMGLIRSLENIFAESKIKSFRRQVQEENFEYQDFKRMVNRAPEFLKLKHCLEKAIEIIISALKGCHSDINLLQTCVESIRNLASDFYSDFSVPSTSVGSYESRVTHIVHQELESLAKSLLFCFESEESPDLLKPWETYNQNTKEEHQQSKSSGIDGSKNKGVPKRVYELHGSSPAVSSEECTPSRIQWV

Results are given in words; binding and its absence hold for the method and conditions named. Binding seen in cells or lysates may run through a third protein. These calls come from enrichment with a bait or labelling near it, and not all partners need be listed.

Assay [1] has as its target GFP::PRC1 (UniProt O43663). Description: affinity purification with mass spectrometry.
For assay [2], the target named is Citron kinase tagged with GFP (CIT-K::AcGFP) (UniProt O14578). The assay is described as follows: affinity purification with mass spectrometry.

For the molecule “Polo-like kinase 1 (Plk1) (from UniProt P53350 1-603) (enzyme)”, the binding entry in assay [1] is on record as “binds”. Consider “kinesin KIF14 (endogenous prey) (from UniProt Q15058 1-1648)”, for which the binding entry in assay [2] is reported as “binds”.

B1: Anillin (endogenous prey) (protein, UniProt Q9NQW6 1-1124)
chain: MDPFTEKLLERTRARRENLQRKMAERPTAAPRSMTHAKRARQPLSEASNQQPLSGGEEKSCTKPSPSKKRCSDNTEVEVSNLENKQPVESTSAKSCSPSPVSPQVQPQAADTISDSVAVPASLLGMRRGLNSRLEATAASSVKTRMQKLAEQRRRWDNDDMTDDIPESSLFSPMPSEEKAASPPRPLLSNASATPVGRRGRLANLAATICSWEDDVNHSFAKQNSVQEQPGTACLSKFSSASGASARINSSSVKQEATFCSQRDGDASLNKALSSSADDASLVNASISSSVKATSPVKSTTSITDAKSCEGQNPELLPKTPISPLKTGVSKPIVKSTLSQTVPSKGELSREICLQSQSKDKSTTPGGTGIKPFLERFGERCQEHSKESPARSTPHRTPIITPNTKAIQERLFKQDTSSSTTHLAQQLKQERQKELACLRGRFDKGNIWSAEKGGNSKSKQLETKQETHCQSTPLKKHQGVSKTQSLPVTEKVTENQIPAKNSSTEPKGFTECEMTKSSPLKITLFLEEDKSLKVTSDPKVEQKIEVIREIEMSVDDDDINSSKVINDLFSDVLEEGELDMEKSQEEMDQALAESSEEQEDALNISSMSLLAPLAQTVGVVSPESLVSTPRLELKDTSRSDESPKPGKFQRTRVPRAESGDSLGSEDRDLLYSIDAYRSQRFKETERPSIKQVIVRKEDVTSKLDEKNNAFPCQVNIKQKMQELNNEINMQQTVIYQASQALNCCVDEEHGKGSLEEAEAERLLLIATGKRTLLIDELNKLKNEGPQRKNKASPQSEFMPSKGSVTLSEIRLPLKADFVCSTVQKPDAANYYYLIILKAGAENMVATPLASTSNSLNGDALTFTTTFTLQDVSNDFEINIEVYSLVQKKDPSGLDKKKKTSKSKAITPKRLLTSITTKSNIHSSVMASPGGLSAVRTSNFALVGSYTLSLSSVGNTKFVLDKVPFLSSLEGHIYLKIKCQVNSSVEERGFLTIFEDVSGFGAWHRRWCVLSGNCISYWTYPDDEKRKNPIGRINLANCTSRQIEPANREFCARRNTFELITVRPQREDDRETLVSQCRDTLCVTKNWLSADTKEERDLWMQKLNQVLVDIRLWQPDACYKPIGKP
On to B1, for which the binding result in assay [2] is listed as “binds”.
